The match of structure and compound is tentative.
What was measured:
human α2A‐adrenoceptor [1] = molecular target: T1, human α2A‐adrenoceptor (Homo sapiens, UniProt P08913); assay: CRE‐SPAP gene transcription in CHO‐α2A cells
human β1‐adrenoceptor [2] = molecular target: T2, human β1‐adrenoceptor (Homo sapiens, UniProt P08588); assay: CRE-SPAP production in CHO-β1 cells
human α2B‐adrenoceptor [3] = molecular target: T3, human α2B‐adrenoceptor (Homo sapiens, UniProt P18089); assay: 3H‐rauwolscine whole cell binding in CHO‐α2B cells
human β2‐adrenoceptor [4] = molecular target: T4, human β2‐adrenoceptor (Homo sapiens, UniProt P07550); assay: 3H-CGP12177 whole cell binding in CHO-β2 cells; details: log of top concentration used; KD not calculable
human β1‐adrenoceptor [5] = molecular target: T2, human β1‐adrenoceptor; assay: 3H-CGP12177 whole cell binding in CHO-β1 cells; details: log of top concentration used; KD not calculable
human β2‐adrenoceptor [6] = molecular target: T4, human β2‐adrenoceptor; assay: CRE-SPAP production in CHO-β2 cells
human α2B‐adrenoceptor [7] = molecular target: T3, human α2B‐adrenoceptor; assay: CRE‐SPAP gene transcription in CHO‐α2B cells
human α2A‐adrenoceptor [8] = molecular target: T1, human α2A‐adrenoceptor; assay: 3H‐rauwolscine whole cell binding in CHO‐α2A cells
[9] = with 3 µM forskolin (inhibitory response)
[10] = fold, from KD values, 1 = no selectivity

Chains of the proteins cited; added tags and fusions are not shown.
UniProt P08913, whole entry: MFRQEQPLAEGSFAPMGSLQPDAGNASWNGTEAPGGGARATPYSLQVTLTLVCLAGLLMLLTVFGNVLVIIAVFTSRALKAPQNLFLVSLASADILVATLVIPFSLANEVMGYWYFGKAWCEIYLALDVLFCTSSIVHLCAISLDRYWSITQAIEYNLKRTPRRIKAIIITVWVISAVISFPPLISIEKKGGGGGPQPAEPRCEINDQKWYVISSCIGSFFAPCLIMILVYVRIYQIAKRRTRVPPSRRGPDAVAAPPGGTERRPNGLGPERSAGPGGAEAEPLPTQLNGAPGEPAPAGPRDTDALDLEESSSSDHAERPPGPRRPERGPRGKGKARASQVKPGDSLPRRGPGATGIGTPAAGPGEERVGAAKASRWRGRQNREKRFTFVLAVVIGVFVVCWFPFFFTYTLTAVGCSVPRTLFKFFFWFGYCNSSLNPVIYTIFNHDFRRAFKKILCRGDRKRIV
UniProt P08588, whole entry: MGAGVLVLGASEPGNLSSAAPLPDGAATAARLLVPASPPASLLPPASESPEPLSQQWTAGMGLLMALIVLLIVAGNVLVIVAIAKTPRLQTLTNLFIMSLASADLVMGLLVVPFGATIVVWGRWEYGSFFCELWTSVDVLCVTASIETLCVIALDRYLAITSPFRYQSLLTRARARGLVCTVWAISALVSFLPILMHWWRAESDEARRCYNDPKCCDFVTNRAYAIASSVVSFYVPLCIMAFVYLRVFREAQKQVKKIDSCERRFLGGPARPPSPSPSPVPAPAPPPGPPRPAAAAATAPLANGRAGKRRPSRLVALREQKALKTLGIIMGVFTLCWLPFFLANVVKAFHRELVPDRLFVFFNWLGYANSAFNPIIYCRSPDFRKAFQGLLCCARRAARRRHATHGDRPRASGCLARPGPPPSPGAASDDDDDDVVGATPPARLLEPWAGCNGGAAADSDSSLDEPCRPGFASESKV
UniProt P18089, whole entry: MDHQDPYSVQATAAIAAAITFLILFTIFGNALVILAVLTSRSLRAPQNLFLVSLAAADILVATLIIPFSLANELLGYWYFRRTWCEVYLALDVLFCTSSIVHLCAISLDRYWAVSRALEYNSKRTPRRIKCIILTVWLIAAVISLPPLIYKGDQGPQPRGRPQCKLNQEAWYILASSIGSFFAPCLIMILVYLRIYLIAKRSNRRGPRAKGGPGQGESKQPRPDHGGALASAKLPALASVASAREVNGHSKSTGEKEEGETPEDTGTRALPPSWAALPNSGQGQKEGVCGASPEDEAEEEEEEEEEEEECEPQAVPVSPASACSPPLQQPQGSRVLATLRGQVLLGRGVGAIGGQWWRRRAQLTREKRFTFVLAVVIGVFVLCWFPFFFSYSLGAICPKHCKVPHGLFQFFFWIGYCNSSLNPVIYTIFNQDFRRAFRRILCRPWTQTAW
UniProt P07550, whole entry: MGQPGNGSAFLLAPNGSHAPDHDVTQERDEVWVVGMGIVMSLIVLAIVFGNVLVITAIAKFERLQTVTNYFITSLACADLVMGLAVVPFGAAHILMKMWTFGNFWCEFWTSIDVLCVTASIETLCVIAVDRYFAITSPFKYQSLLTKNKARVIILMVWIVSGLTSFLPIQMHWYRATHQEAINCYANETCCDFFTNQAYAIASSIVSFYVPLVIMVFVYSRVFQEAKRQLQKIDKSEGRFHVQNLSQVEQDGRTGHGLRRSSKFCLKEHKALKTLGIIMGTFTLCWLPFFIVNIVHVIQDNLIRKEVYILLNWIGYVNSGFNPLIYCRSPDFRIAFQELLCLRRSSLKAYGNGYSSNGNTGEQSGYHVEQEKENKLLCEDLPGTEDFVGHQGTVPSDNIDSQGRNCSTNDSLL

Cc1sc(C)c2c1CCC=C2c1cnc[nH]1.O=C(O)/C=C\C(=O)O [T‐CG 1000]
Log EC50 (Gs), CRE‐SPAP (without forskolin) (human α2A‐adrenoceptor [1]; CHO‐α2A (cell line 1), absence of forskolin): No response
Log IC50 (Gi), CRE‐SPAP (with forskolin) (human α2A‐adrenoceptor [1]; CHO‐α2A (cell line 1, 5830 fmol/mg protein), 3 μM forskolin): No response
Log EC50 (human β1‐adrenoceptor [2]; no forskolin, log values): No resp
Log IC50 (human β1‐adrenoceptor [2]; [9]): No resp
Log KD (binding) (human α2B‐adrenoceptor [3]; CHO‐α2B, given as negative log KD): −6.01
Log KD, CHO‐α2B (human α2B‐adrenoceptor [3]; living cells, negative log KD, mean ± SEM): −6.01 ± 0.03
IC50 (log), 3H-CGP12177 whole cell binding CHO-β2 (human β2‐adrenoceptor [4]): IC50>-4
IC50 (log), 3H-CGP12177 whole cell binding CHO-β1 (human β1‐adrenoceptor [5]): IC50>-4
Log EC50 (human β2‐adrenoceptor [6]; no forskolin, log values): No resp
Log IC50 (human β2‐adrenoceptor [6]; [9]): No resp
Log IC50 (Gi), CRE‐SPAP (with forskolin) (human α2B‐adrenoceptor [7]; 3 μM forskolin): −7.78 ± 0.08
Log EC50 (Gs), CRE‐SPAP (with forskolin) (human α2B‐adrenoceptor [7]; 3 μM forskolin, stimulatory part of biphasic response): −6.89 ± 0.05
Log EC50 (Gs), CRE‐SPAP (without forskolin) (human α2B‐adrenoceptor [7]; absence of forskolin): −6.46 ± 0.05
Log efficacy ratio (KD/IC50) (human α2B‐adrenoceptor [7]; binding KD / Gi IC50 of CRE‐SPAP): 1.77
% 3 μM forskolin, CRE‐SPAP (without forskolin) (human α2B‐adrenoceptor [7]; maximum response compared to 3 μM forskolin): 115.6 ± 8.6%
Log KD, CHO‐α2A (human α2A‐adrenoceptor [8]; 3H‐rauwolscine whole cell binding, living cells, negative log KD, mean ± SEM): −7.08 ± 0.03
Log KD (binding) (human α2A‐adrenoceptor [8]; CHO‐α2A, 3H‐rauwolscine whole cell binding, given as negative log KD): −7.08
Selectivity ratio α2A vs α2B (higher affinity for α2A) (human α2A‐adrenoceptor [8]; [10]): 11.7
Selectivity ratio α2A vs α2C (higher affinity for α2A) (human α2A‐adrenoceptor [8]; [10]): 2.1

From paper PMC9471048
